No constants are given. Whether binding was seen depends on the method and setting. Some binding calls cover weakened binding; strength is not graded here.
Legend:
[1] = biological target: human CD40/His protein (human) (UniProt P25942); test: ELISA, purified antibody on coated CD40/His (2 ug/mL), anti-human IgG-HRP
[2] = biological target: human CD40/His protein (human) (UniProt P25942); test: ELISA, 293F culture supernatant on CD40/His

Amino acid sequences for entries named in this document (tags omitted). Residues count along the entry.
UniProt P25942, residues 21-193: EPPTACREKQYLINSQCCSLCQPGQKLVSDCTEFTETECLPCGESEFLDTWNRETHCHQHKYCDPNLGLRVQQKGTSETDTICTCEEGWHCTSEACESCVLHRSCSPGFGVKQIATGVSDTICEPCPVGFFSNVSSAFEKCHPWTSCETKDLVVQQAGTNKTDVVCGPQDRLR

Binder	binding [1]	binding [2]
ANb24-Alpaca1-4M-2SP-149 (Fc fusion, also called ANb24-A1-4M-2SP-149; ANb24-Alpacal-4M-2SP-149; not shown: Fc joined to the VHH by overlap PCR) EVQLVESGGGLVQPGGSLRLSCTASGSTLDIYAIGWFRQAPGKEREGVSCITGSGSSTRYAHSVTGRFTISRDNAKNTVFLQMNSLKPEDTAVYYCAKARLLSRLCVPSPDFESWGQGTQVTVSS	binds	binds
ANb24-Alpaca1-4M-2SP-180 (Fc fusion, also called ANb24-A1-4M-2SP-180; ANb24-Abpacal-4M-2SP-180; not shown: Fc joined to the VHH by overlap PCR) QPQFVESGGGLVQPGGSLRLSCTASGSTLDIYAIGWFRQAPGKEREGVSCITGSGSSTRYADSVTGRFTISRDNAKNTVFLQMNSLKPDDTAVYYCAKARLLSMLCVPSPDFESWGQGTQVTVSS	binds	binds
ANb24-Alpaca1-4M-2SP-273 (Fc fusion, also called ANb24-A1-4M-2SP-273; ANb24-Alpacal-4M-2SP-273; not shown: Fc joined to the VHH by overlap PCR) EVQLVESGGGLVQPGGSLRLSCAASGSTLDYYAIGWFRQAPGKEREGVSCISGSGGSTRYADSVTGRFTISKDSAKNTVYLEMNSLKPEDTAVYYCARARLLSRLCVPSADFDSWGQGTQVTVSS	binds	binds
ANb24-Alpaca1-4M-2SP-175 (Fc fusion, also called ANb24-A1-4M-2SP-175; ANb24-Alpacal-4M-2SP-175; not shown: Fc joined to the VHH by overlap PCR) QPHFVESGGGLVQPGGSLRLSCVASGFTFEYVPIGWFRQAPGKEREGVSCITPTGITRNADSVKGRFTISRDNAKNTVYLQLNSLKPEDTAVYYCAKARLLSTSCVQTSDARGQGTQVTVSS	binds	binds
ANb24-Alpaca1-4M-2SP-226 (Fc fusion, also called ANb24-A1-4M-2SP-226; ANb24-Alpacal-4M-2SP-226; not shown: Fc joined to the VHH by overlap PCR) QLQLVESGGGLVQPGGTLRLSCAASGVTLEYYSIGWFRQSPGKEREGVSCISGGGVQRYADSAEGRFAISRDNAKNMVYLQMNNLEPEDTAVYYCARARLLMRGCAPMDNYWGQGTQVTVSS	binds	binds
ANb24-Alpaca1-4M-2SP-317 (Fc fusion, also called ANb24-A1-4M-2SP-317; ANb24-Alpacal-4M-2SP-317; not shown: Fc joined to the VHH by overlap PCR) QLQLVESGGDLVQPGGSLRLSCTASGHTLEYYAIGWFRQAPGKEREGVSCIIGSGGSTRYFDSVLGRFTISRDNAKNTVFLQMNSLKPEDTAVYYCAKVRLLSRLCVPSSDFDSWGQGTQVTVSS	binds	binds
ANb24-Alpaca1-4M-2SP-332 (Fc fusion, also called ANb24-A1-4M-2SP-332; ANb24-Alpacal-4M-2SP-332; not shown: Fc joined to the VHH by overlap PCR) QVQLVESGGGLVQPGGSLRLSCAASGSTLASYAIGWFRQAPGKEREGISCISGSGGSTRAADSVQGRFTISRDNAKNTVSLQMNSLKPEDTAIYYCAKVRLLSRGCVPSPDFDSWGQGTQVTVSS	binds	binds
ANb24-Alpaca1-4M-2SP-335 (Fc fusion, also called ANb24-A1-4M-2SP-335; ANb24-Alpacal-4M-2SP-335; not shown: Fc joined to the VHH by overlap PCR) QPQFVESGGGLVQPGGTLRLSCAASGFTFEYYTIGWFRQTPGKEREGVSCITAAGVPRNADSAKGRFTISRDNAKNMVYLQMNNLKPEDTAVYYCAQARLLSTSCAPMNDYWGQGTQVTVSS	binds	binds

Source: patent publication US20250188180A1 (BIOINTRON BIOLOGICAL, published 2025)
